According to paper PMC8688524:
These are yes or no findings as the source states them, for the method shown. In cells and extracts the contact can be indirect. Some entries that bind do so weakly or less than the wild type. For part of these data: Sequences can lack the tags named with a protein.

Sequences of proteins named here, by UniProt entry; tags and fusion partners are left off. Residues count along the entry.
UniProt A8TX70, residues 19-2615: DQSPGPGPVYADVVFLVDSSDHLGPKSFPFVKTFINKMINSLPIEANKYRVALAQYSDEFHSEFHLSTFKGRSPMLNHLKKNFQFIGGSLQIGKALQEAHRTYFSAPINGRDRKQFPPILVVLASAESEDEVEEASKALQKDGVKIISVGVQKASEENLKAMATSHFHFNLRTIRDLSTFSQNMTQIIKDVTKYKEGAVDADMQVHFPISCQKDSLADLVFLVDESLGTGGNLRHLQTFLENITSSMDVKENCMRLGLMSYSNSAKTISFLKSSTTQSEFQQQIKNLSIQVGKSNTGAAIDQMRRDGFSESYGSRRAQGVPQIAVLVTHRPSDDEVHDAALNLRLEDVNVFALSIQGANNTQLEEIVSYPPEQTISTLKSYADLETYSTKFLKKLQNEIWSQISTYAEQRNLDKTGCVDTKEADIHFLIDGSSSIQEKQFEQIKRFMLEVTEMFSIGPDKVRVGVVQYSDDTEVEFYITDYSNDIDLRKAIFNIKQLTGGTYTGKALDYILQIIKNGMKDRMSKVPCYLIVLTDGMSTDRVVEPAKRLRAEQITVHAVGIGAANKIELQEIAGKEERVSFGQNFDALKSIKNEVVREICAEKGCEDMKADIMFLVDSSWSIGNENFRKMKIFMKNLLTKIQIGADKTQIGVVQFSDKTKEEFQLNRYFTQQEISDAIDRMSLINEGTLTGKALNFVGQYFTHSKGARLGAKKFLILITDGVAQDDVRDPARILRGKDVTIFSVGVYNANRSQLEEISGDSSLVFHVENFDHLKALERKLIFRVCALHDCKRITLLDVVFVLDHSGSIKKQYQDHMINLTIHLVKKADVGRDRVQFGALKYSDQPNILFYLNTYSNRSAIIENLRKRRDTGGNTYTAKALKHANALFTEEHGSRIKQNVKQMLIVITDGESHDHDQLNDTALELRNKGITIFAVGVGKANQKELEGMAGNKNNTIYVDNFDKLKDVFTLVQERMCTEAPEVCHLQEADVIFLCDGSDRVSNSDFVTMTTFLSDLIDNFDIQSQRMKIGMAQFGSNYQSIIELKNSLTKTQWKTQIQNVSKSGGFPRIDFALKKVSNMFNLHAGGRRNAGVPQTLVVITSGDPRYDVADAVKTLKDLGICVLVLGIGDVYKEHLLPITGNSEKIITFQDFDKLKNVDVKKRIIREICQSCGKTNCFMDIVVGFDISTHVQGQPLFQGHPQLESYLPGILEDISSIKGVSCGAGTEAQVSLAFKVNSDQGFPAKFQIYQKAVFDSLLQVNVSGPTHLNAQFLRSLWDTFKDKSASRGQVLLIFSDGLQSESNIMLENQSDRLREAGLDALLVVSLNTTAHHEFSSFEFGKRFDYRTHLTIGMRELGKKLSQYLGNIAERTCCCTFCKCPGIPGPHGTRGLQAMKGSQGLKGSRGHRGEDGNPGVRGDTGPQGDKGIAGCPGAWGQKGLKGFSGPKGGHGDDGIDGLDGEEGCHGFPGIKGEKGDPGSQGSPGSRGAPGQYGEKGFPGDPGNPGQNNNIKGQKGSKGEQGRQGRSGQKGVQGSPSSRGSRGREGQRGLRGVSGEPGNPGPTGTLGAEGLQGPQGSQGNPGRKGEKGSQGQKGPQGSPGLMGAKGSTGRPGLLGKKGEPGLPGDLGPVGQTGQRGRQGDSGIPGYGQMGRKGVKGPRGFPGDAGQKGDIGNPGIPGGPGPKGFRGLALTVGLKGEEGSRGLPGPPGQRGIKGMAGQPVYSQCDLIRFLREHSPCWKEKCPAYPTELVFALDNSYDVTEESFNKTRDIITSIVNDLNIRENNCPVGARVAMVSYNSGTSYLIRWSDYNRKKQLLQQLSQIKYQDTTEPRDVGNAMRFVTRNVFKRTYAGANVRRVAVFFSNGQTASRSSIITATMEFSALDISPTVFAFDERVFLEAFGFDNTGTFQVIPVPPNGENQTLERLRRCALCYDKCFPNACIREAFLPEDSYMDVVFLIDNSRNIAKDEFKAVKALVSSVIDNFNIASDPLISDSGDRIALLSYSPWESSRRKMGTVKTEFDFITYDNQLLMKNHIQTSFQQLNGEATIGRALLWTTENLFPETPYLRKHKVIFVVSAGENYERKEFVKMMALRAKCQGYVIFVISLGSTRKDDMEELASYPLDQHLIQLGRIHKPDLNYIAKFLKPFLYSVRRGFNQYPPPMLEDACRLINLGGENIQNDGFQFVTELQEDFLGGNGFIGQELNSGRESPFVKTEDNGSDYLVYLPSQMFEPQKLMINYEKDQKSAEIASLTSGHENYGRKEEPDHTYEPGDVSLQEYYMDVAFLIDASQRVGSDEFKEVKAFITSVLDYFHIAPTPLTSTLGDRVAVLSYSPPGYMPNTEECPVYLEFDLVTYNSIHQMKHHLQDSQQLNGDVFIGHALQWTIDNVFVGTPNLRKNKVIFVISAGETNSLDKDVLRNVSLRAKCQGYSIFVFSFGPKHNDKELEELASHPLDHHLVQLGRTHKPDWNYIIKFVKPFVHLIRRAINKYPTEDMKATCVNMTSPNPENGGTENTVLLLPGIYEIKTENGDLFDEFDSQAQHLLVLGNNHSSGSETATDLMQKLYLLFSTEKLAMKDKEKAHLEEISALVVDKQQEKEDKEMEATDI
UniProt Q14050, residues 26-684: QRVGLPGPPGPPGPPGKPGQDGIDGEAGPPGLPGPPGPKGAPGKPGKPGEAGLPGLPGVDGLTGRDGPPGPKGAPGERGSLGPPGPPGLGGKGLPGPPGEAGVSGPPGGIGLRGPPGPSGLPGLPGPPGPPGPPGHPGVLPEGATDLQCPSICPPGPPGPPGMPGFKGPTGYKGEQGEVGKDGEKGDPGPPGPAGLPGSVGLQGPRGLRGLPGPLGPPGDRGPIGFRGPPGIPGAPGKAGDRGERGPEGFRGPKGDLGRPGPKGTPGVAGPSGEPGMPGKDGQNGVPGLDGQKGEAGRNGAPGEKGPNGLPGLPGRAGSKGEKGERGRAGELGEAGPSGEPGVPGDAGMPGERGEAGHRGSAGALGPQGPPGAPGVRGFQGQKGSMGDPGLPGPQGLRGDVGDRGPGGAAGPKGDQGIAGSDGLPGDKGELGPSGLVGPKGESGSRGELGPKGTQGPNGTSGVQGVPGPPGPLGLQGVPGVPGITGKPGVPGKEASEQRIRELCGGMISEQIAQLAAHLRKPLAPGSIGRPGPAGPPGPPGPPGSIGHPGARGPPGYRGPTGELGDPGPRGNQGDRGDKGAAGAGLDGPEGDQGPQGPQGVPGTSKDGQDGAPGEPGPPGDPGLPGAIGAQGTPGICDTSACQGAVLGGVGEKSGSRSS

Columns and labels:
GST-USP3 = target: T1, GST-USP3 (UniProt Q9Y6I4); test: pull-down; lysates of AGS and BGC-823 cells transfected with COL9A3 or COL6A5 incubated with GST or GST-USP3; proteins retained on sepharose blotted; only the target purified
T1 sequence: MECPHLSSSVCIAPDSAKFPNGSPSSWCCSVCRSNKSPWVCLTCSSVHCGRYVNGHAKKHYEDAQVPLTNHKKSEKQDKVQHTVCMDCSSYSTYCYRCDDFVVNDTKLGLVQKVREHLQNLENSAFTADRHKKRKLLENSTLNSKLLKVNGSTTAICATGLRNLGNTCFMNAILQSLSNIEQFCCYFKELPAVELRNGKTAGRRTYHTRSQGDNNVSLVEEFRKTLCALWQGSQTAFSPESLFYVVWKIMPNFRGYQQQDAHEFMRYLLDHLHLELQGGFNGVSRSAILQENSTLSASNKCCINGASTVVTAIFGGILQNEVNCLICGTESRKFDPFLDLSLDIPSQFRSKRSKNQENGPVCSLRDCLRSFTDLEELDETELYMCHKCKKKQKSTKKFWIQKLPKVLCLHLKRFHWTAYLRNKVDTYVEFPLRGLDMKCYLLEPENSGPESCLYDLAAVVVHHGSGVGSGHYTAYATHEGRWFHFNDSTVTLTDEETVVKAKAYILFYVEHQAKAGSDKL

[1] = target: COL6A5, endogenous (human (endogenous in GC cells)) (UniProt A8TX70); test: co-IP; reciprocal co-IP of endogenous proteins from GC cell lysates with control IgG, anti-USP3, anti-COL9A3 or anti-COL6A5; antibody overnight at 4 °C, protein A/G agarose 2 h at 4 °C; western blot
[2] = target: COL9A3, endogenous (human (endogenous in GC cells)) (UniProt Q14050); test: as above
His-tagged COL6A5 = His-tagged COL6A5 (UniProt A8TX70); test: co-IP; tagged constructs co-transfected into AGS (Fig. 2B also BGC-823) cells; immunoprecipitation with anti-Flag, anti-Myc or anti-His; antibody overnight at 4 °C, protein A/G agarose 2 h at 4 °C; western blot
Myc-tagged COL9A3 = Myc-tagged COL9A3 (UniProt Q14050); test: as above

Which binding (GST-USP3) does the source give for “Myc-tagged COL9A3 (from UniProt Q14050 26-684)” here?
The binding was “binds”.

For “His-tagged COL6A5 (from UniProt A8TX70 19-2615)”, which binding (GST-USP3) is on record?
Its binding is “binds”.

B1: Ubiquitin-specific protease 3 (USP3), endogenous (enzyme, UniProt Q9Y6I4 1-520)
chain: MECPHLSSSVCIAPDSAKFPNGSPSSWCCSVCRSNKSPWVCLTCSSVHCGRYVNGHAKKHYEDAQVPLTNHKKSEKQDKVQHTVCMDCSSYSTYCYRCDDFVVNDTKLGLVQKVREHLQNLENSAFTADRHKKRKLLENSTLNSKLLKVNGSTTAICATGLRNLGNTCFMNAILQSLSNIEQFCCYFKELPAVELRNGKTAGRRTYHTRSQGDNNVSLVEEFRKTLCALWQGSQTAFSPESLFYVVWKIMPNFRGYQQQDAHEFMRYLLDHLHLELQGGFNGVSRSAILQENSTLSASNKCCINGASTVVTAIFGGILQNEVNCLICGTESRKFDPFLDLSLDIPSQFRSKRSKNQENGPVCSLRDCLRSFTDLEELDETELYMCHKCKKKQKSTKKFWIQKLPKVLCLHLKRFHWTAYLRNKVDTYVEFPLRGLDMKCYLLEPENSGPESCLYDLAAVVVHHGSGVGSGHYTAYATHEGRWFHFNDSTVTLTDEETVVKAKAYILFYVEHQAKAGSDKL
For B1, which binding [1] is on record?
The binding was “binds”.

What about the binding [2] of the same molecule?
The binding was “binds”.

B2: Flag-tagged USP3 (enzyme, UniProt Q9Y6I4 1-520)
chain: MECPHLSSSVCIAPDSAKFPNGSPSSWCCSVCRSNKSPWVCLTCSSVHCGRYVNGHAKKHYEDAQVPLTNHKKSEKQDKVQHTVCMDCSSYSTYCYRCDDFVVNDTKLGLVQKVREHLQNLENSAFTADRHKKRKLLENSTLNSKLLKVNGSTTAICATGLRNLGNTCFMNAILQSLSNIEQFCCYFKELPAVELRNGKTAGRRTYHTRSQGDNNVSLVEEFRKTLCALWQGSQTAFSPESLFYVVWKIMPNFRGYQQQDAHEFMRYLLDHLHLELQGGFNGVSRSAILQENSTLSASNKCCINGASTVVTAIFGGILQNEVNCLICGTESRKFDPFLDLSLDIPSQFRSKRSKNQENGPVCSLRDCLRSFTDLEELDETELYMCHKCKKKQKSTKKFWIQKLPKVLCLHLKRFHWTAYLRNKVDTYVEFPLRGLDMKCYLLEPENSGPESCLYDLAAVVVHHGSGVGSGHYTAYATHEGRWFHFNDSTVTLTDEETVVKAKAYILFYVEHQAKAGSDKL
How did the binding (His-tagged COL6A5) turn out when B2 was run?
Its binding is “binds”.

And the binding (Myc-tagged COL9A3)?
The binding was “binds”.
